Assay results published in PMC6642080.
No constants are given. Whether binding was seen depends on the method and setting. In cells and extracts the contact can be indirect. Some results given as binding are weak or reduced against the parent protein; the word gives no strength. Where a sequence is shown, tags or fusion partners need not be part of it.

T1: Single immunoglobin interleukin-1 (IL-1)-related receptor (Sigirr), endogenous in MLE12 cells (mouse (endogenous in MLE12)) (UniProt Q9JLZ8)
T1 sequence: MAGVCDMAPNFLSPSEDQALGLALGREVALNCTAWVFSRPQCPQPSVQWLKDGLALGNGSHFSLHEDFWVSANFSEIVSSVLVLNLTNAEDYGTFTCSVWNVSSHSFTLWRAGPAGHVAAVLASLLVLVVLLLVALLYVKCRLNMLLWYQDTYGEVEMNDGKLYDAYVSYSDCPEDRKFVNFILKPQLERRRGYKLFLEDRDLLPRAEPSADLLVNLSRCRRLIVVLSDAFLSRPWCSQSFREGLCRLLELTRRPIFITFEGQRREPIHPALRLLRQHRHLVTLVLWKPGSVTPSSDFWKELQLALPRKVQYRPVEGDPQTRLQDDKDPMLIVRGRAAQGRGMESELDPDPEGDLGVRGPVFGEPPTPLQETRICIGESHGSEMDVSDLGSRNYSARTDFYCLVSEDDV

T2: V5-tagged full-length Sigirr (1-410 aa) (human), Q6IA17
T2 chain: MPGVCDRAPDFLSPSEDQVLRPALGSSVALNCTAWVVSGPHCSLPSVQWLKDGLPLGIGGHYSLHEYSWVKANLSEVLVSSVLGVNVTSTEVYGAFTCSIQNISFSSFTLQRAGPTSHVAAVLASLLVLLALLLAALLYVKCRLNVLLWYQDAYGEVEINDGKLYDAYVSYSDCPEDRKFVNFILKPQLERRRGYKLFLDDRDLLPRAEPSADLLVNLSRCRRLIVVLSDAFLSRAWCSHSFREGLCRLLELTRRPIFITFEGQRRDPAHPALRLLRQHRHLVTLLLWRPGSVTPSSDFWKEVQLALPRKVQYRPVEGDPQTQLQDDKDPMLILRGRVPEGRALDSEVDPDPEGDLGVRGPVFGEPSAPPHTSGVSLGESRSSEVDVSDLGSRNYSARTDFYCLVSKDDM

T3: Sigirr (1-374)-V5 (human) (UniProt Q6IA17)
T3 sequence: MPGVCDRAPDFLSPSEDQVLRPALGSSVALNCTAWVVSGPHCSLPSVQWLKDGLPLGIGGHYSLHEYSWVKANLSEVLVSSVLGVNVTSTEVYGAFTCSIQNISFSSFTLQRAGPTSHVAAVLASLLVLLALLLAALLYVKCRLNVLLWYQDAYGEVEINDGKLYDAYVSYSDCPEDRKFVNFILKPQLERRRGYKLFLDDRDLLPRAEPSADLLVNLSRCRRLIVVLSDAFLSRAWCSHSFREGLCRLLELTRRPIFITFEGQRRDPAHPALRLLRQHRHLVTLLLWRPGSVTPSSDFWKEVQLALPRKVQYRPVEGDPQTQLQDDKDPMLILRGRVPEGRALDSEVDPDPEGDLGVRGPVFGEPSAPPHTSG


Columns and labels:
[1] = target: T1, Single immunoglobin interleukin-1 (IL-1)-related receptor (Sigirr), endogenous in MLE12 cells (mouse (endogenous in MLE12)); test: co-IP; MLE12 cell lysate (1% Triton X-100, 150 mM NaCl, Tris pH 7.4); IP with anti-Sigirr antibody and protein A/G agarose overnight at 4 °C; blot for V5 (overexpressed USP13-V5) or USP13 (endogenous); untreated cells
[2] = target: T2, V5-tagged full-length Sigirr (1-410 aa) …; test: co-IP; USP13-HA and V5-tagged Sigirr or its C-terminal deletion mutants made with a TnT in vitro translation system, incubated together; IP with anti-V5 beads; blot for HA; details: remark: other sources report otherwise
[3] = target: T3, Sigirr (1-374)-V5 (human); test: as above

| Binder | binding [1] | further results |
| --- | --- | --- |
| V5-tagged USP13 (USP13-V5) (enzyme, UniProt Q92995 1-863) MQRRGALFGMPGGSGGRKMAAGDIGELLVPHMPTIRVPRSGDRVYKNECAFSYDSPNSEGGLYVCMNTFLAFGREHVERHFRKTGQSVYMHLKRHVREKVRGASGGALPKRRNSKIFLDLDTDDDLNSDDYEYEDEAKLVIFPDHYEIALPNIEELPALVTIACDAVLSSKSPYRKQDPDTWENELPVSKYANNLTQLDNGVRIPPSGWKCARCDLRENLWLNLTDGSVLCGKWFFDSSGGNGHALEHYRDMGYPLAVKLGTITPDGADVYSFQEEEPVLDPHLAKHLAHFGIDMLHMHGTENGLQDNDIKLRVSEWEVIQESGTKLKPMYGPGYTGLKNLGNSCYLSSVMQAIFSIPEFQRAYVGNLPRIFDYSPLDPTQDFNTQMTKLGHGLLSGQYSKPPVKSELIEQVMKEEHKPQQNGISPRMFKAFVSKSHPEFSSNRQQDAQEFFLHLVNLVERNRIGSENPSDVFRFLVEERIQCCQTRKVRYTERVDYLMQLPVAMEAATNKDELIAYELTRREAEANRRPLPELVRAKIPFSACLQAFSEPENVDDFWSSALQAKSAGVKTSRFASFPEYLVVQIKKFTFGLDWVPKKFDVSIDMPDLLDINHLRARGLQPGEEELPDISPPIVIPDDSKDRLMNQLIDPSDIDESSVMQLAEMGFPLEACRKAVYFTGNMGAEVAFNWIIVHMEEPDFAEPLTMPGYGGAASAGASVFGASGLDNQPPEEIVAIITSMGFQRNQAIQALRATNNNLERALDWIFSHPEFEEDSDFVIEMENNANANIISEAKPEGPRVKDGSGTYELFAFISHMGTSTMSGHYICHIKKEGRWVIYNDHKVCASERPPKDLGYMYFYRRIPS | binds | – |
| USP13, endogenous in MLE12 cells (enzyme, UniProt Q5BKP2 1-858) MQRRGALFSVPGGGGKMAAGDLGELLVPHMPTIRVPRSGDRVYKNECAFSYDSPNSEGGLYVCMNTFLAFGREHVERHFRKTGQSVYMHLKRHMREKVRGASGGALPKRRNSKIFLDLDMDDDLNSDDYEYEDEAKLVIFPDHYEIALPNIEELPALVTIACDAVLSSKSPYRKQDPDTWENEVPVSKYANNLVQLDNGVRIPPSGWKCARCDLRENLWLNLTDGSVLCGKWFFDSSGGNGHALEHYRDMGYPLAVKLGTITPDGADVYSFQEEGPVSDPHLAKHLAHFGIDMLHTQGTENGLRDNDIKPRVSEWEVIQESGTKLKPMYGPGYTGLKNLGNSCYLSSVMQAIFSIPEFQRAYVGNLPRIFDYSPLDPTQDFNTQMTKLGHGLLSGQYSKPPVKSELIEQVMKEEHKPQQNGISPRMFKAFVSKSHPEFSSNRQQDAQEFFLHLVNLVERNRIGSENPSDVFRFLVEERIQCCQTRKVRYTERVDYLMQLPVAMEAATNKDELITYELMRREAEANRRPLPELVRAKIPFSACLQAFAEPDNVDDFWSSALQAKSAGVKTSRFASFPEYLVVQIKKFTFGLDWVPRKFDVSIDMPDLLDISHLRARGLQPGEEELPDISPPIVIPDDSKDRLMNQLIDPSDIDESSVMQLAEMGFPLEACRKAVYFTGNTGAEVAFNWIIVHMEEPDFAEPLAIPGYGGAGASVFGATGLDNQPPEEIVAIITSMGFQRNQAVQALQATNHNLERALDWIFSHPEFEEDSDFVIEMENNANANIVSEAKPEGPRVKDGSGMYELFAFISHMGTSTMSGHYVCHIKKEGRWVIYNDHKVCASERPPKDLGYMYFYRRIPS | binds | – |
| USP13-HA, Q92995 1-863 (enzyme) MQRRGALFGMPGGSGGRKMAAGDIGELLVPHMPTIRVPRSGDRVYKNECAFSYDSPNSEGGLYVCMNTFLAFGREHVERHFRKTGQSVYMHLKRHVREKVRGASGGALPKRRNSKIFLDLDTDDDLNSDDYEYEDEAKLVIFPDHYEIALPNIEELPALVTIACDAVLSSKSPYRKQDPDTWENELPVSKYANNLTQLDNGVRIPPSGWKCARCDLRENLWLNLTDGSVLCGKWFFDSSGGNGHALEHYRDMGYPLAVKLGTITPDGADVYSFQEEEPVLDPHLAKHLAHFGIDMLHMHGTENGLQDNDIKLRVSEWEVIQESGTKLKPMYGPGYTGLKNLGNSCYLSSVMQAIFSIPEFQRAYVGNLPRIFDYSPLDPTQDFNTQMTKLGHGLLSGQYSKPPVKSELIEQVMKEEHKPQQNGISPRMFKAFVSKSHPEFSSNRQQDAQEFFLHLVNLVERNRIGSENPSDVFRFLVEERIQCCQTRKVRYTERVDYLMQLPVAMEAATNKDELIAYELTRREAEANRRPLPELVRAKIPFSACLQAFSEPENVDDFWSSALQAKSAGVKTSRFASFPEYLVVQIKKFTFGLDWVPKKFDVSIDMPDLLDINHLRARGLQPGEEELPDISPPIVIPDDSKDRLMNQLIDPSDIDESSVMQLAEMGFPLEACRKAVYFTGNMGAEVAFNWIIVHMEEPDFAEPLTMPGYGGAASAGASVFGASGLDNQPPEEIVAIITSMGFQRNQAIQALRATNNNLERALDWIFSHPEFEEDSDFVIEMENNANANIISEAKPEGPRVKDGSGTYELFAFISHMGTSTMSGHYICHIKKEGRWVIYNDHKVCASERPPKDLGYMYFYRRIPS | – | binding [2]: binds |
| USP13-HA (enzyme, UniProt Q92995 1-863) MQRRGALFGMPGGSGGRKMAAGDIGELLVPHMPTIRVPRSGDRVYKNECAFSYDSPNSEGGLYVCMNTFLAFGREHVERHFRKTGQSVYMHLKRHVREKVRGASGGALPKRRNSKIFLDLDTDDDLNSDDYEYEDEAKLVIFPDHYEIALPNIEELPALVTIACDAVLSSKSPYRKQDPDTWENELPVSKYANNLTQLDNGVRIPPSGWKCARCDLRENLWLNLTDGSVLCGKWFFDSSGGNGHALEHYRDMGYPLAVKLGTITPDGADVYSFQEEEPVLDPHLAKHLAHFGIDMLHMHGTENGLQDNDIKLRVSEWEVIQESGTKLKPMYGPGYTGLKNLGNSCYLSSVMQAIFSIPEFQRAYVGNLPRIFDYSPLDPTQDFNTQMTKLGHGLLSGQYSKPPVKSELIEQVMKEEHKPQQNGISPRMFKAFVSKSHPEFSSNRQQDAQEFFLHLVNLVERNRIGSENPSDVFRFLVEERIQCCQTRKVRYTERVDYLMQLPVAMEAATNKDELIAYELTRREAEANRRPLPELVRAKIPFSACLQAFSEPENVDDFWSSALQAKSAGVKTSRFASFPEYLVVQIKKFTFGLDWVPKKFDVSIDMPDLLDINHLRARGLQPGEEELPDISPPIVIPDDSKDRLMNQLIDPSDIDESSVMQLAEMGFPLEACRKAVYFTGNMGAEVAFNWIIVHMEEPDFAEPLTMPGYGGAASAGASVFGASGLDNQPPEEIVAIITSMGFQRNQAIQALRATNNNLERALDWIFSHPEFEEDSDFVIEMENNANANIISEAKPEGPRVKDGSGTYELFAFISHMGTSTMSGHYICHIKKEGRWVIYNDHKVCASERPPKDLGYMYFYRRIPS | – | binding [3]: binds |
